According to article PMC10064996:
No constants are given. Whether binding was seen depends on the method and setting. Binding seen in cells or lysates may run through a third protein. Some results given as binding are weak or reduced against the parent protein; the word gives no strength. Sequences can lack the tags named with a protein.

Target: T1, FHY3-cLUC (UniProt Q9LIE5)
T1 sequence: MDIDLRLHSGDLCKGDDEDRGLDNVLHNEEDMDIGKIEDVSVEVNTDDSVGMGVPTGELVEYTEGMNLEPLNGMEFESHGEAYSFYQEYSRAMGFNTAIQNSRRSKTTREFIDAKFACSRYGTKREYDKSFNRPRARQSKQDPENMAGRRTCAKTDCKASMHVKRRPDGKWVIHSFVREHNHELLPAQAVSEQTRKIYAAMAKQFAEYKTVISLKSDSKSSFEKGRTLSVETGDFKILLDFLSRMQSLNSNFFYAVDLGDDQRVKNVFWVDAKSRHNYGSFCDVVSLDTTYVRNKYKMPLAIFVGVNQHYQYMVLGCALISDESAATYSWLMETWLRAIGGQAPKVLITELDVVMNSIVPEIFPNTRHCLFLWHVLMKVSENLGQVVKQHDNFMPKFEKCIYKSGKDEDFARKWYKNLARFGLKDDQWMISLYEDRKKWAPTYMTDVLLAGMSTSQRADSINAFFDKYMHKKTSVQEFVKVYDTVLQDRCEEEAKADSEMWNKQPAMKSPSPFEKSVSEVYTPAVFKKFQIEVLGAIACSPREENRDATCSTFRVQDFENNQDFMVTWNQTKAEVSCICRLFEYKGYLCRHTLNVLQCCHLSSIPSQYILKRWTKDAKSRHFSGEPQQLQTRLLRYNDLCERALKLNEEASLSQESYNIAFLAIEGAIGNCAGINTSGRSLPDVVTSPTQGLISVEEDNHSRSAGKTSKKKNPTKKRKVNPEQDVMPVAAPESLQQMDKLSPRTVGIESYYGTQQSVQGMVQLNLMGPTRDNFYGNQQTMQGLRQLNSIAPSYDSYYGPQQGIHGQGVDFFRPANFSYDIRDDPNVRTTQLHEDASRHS
Experiment: split reporter; luciferase complementation imaging (LCI); nLUC and cLUC constructs, Agrobacterium mixed in equal amounts and injected into tobacco leaves; 1 mM luciferin, CCD imaging

- binding: binds
B1: SPL3-nLUC (protein, UniProt P93015 1-131)
chain: MSMRRSKAEGKRSLRELSEEEEEEEETEDEDTFEEEEALEKKQKGKATSSSGVCQVESCTADMSKAKQYHKRHKVCQFHAKAPHVRISGLHQRFCQQCSRFHALSEFDEAKRSCRRRLAGHNERRRKSTTD
